# Where a name gives a salt, the structure may show the parent alone. This is one part of the list. Hit calls seldom repeat between salt and free forms of one compound.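 Kinases were expressed as nanoluciferase fusions in K562 cells and luminescence was read every 4 h between 2 and 18 h as percent of control, DMSO set to 100% and a positive control to 0%. A time point counts as decreased when the signal drops significantly (2 sigma). The hit call is the authors' own, does not follow from the count of time points alone, and its rule is not shown.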
# Sequences of proteins named here, by UniProt entry; tags and fusion partners are left off. A change or cut given only in a name is not applied to a line headed by its entry.
# UniProt P48729: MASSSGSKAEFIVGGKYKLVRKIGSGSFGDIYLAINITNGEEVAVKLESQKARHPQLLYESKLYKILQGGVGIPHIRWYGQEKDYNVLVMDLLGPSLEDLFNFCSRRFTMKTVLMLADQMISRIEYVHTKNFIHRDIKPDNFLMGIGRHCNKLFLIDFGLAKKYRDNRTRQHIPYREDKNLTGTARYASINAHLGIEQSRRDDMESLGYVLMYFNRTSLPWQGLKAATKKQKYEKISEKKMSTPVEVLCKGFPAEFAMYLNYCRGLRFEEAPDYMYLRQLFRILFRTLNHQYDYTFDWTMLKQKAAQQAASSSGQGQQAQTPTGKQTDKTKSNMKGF
# UniProt P48730: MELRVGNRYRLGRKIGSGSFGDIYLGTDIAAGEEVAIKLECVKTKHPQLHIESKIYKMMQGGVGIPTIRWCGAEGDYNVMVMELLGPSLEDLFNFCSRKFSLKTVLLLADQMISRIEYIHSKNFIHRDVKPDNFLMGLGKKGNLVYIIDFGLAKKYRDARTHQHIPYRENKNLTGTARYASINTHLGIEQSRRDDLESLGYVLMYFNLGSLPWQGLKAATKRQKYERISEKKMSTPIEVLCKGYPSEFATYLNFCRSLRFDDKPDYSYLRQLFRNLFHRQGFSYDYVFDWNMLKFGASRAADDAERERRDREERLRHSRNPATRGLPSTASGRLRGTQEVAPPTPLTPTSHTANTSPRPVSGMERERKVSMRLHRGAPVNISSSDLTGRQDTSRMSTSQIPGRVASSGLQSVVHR
# UniProt Q08345: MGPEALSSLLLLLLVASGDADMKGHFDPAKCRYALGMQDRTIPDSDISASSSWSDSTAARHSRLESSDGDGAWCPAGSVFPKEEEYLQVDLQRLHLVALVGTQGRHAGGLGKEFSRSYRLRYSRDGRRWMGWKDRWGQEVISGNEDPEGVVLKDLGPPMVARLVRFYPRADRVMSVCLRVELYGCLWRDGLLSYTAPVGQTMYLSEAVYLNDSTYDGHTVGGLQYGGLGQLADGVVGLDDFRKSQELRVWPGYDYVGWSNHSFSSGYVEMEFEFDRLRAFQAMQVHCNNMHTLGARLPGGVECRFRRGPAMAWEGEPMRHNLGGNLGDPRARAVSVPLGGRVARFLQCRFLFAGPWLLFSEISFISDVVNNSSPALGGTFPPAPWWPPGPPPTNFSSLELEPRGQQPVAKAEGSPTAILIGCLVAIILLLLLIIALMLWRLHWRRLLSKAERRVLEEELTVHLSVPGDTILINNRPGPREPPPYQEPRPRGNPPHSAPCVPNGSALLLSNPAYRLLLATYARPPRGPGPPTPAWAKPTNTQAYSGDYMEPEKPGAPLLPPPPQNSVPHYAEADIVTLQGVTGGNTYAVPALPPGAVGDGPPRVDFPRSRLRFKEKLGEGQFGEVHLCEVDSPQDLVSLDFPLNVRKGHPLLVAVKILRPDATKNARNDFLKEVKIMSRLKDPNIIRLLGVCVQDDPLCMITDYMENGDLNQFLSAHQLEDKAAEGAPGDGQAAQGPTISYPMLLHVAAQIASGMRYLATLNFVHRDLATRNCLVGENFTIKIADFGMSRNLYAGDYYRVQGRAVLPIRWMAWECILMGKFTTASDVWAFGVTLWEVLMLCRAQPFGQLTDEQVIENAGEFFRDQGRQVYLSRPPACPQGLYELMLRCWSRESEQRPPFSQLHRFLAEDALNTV
# UniProt Q9Y463, whole entry, looked up: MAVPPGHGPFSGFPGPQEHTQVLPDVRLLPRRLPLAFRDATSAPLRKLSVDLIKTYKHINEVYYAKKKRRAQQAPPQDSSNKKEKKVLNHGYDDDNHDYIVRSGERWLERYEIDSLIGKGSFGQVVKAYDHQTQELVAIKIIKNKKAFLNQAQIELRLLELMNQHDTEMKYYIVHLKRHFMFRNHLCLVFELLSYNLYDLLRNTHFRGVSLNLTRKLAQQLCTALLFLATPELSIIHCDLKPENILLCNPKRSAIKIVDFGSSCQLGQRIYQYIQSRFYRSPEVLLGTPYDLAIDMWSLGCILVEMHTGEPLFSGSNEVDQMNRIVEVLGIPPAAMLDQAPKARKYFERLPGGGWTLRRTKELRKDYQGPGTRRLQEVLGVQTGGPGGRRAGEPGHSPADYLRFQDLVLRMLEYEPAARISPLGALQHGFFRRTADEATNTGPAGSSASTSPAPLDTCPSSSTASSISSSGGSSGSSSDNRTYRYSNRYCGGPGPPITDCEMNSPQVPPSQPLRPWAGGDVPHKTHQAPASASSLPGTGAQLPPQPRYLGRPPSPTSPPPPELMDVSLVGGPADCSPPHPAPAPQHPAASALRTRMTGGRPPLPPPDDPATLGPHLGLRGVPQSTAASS
# UniProt Q92630: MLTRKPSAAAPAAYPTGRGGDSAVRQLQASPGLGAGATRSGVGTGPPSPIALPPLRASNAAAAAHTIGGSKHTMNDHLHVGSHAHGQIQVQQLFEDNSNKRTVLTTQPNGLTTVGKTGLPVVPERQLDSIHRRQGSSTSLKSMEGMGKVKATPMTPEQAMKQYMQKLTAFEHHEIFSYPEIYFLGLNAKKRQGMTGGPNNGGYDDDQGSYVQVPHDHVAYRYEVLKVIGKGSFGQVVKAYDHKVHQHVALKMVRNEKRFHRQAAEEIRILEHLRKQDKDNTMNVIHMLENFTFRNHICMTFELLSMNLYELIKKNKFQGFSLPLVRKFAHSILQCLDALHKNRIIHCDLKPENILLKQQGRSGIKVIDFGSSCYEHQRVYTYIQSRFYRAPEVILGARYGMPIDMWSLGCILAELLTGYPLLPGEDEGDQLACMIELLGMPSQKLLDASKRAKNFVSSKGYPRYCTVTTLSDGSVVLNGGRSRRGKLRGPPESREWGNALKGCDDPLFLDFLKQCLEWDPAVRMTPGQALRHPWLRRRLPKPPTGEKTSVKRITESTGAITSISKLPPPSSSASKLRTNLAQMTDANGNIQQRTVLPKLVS
# Assays:
# Experiment in all cases: number of time points (of 5) at which kinase-Nluc abundance scored as decreased, DMSO-normalised (count); higher = more persistent destabilization
# Details in all cases: K562; 2-18 h
# [1] = molecular target: CSNK1A1 (UniProt P48729)
# [2] = molecular target: CSNK1D (UniProt P48730)
# [3] = molecular target: DDR1 (UniProt Q08345)
# [4] = molecular target: DYRK1B (UniProt Q9Y463)
# [5] = molecular target: DYRK2 (UniProt Q92630)
# [6] = molecular target: EGFR (UniProt P00533)
# [7] = molecular target: EGFR_G719S (UniProt P00533)
# [8] = molecular target: EGFR_G719S_T790M (UniProt P00533)
# [9] = molecular target: EGFR_L718V (UniProt P00533)
# [10] = molecular target: EGFR_L858R (UniProt P00533)
Compound,number of time points [1],number of time points [2],number of time points [3],number of time points [4],number of time points [5],number of time points [6],number of time points [7],number of time points [8],number of time points [9],number of time points [10]
COc1cccc(-n2c(=O)[nH]c3cc(Cl)n(-c4ccc(-c5cccc(OC)c5O)cc4)c3c2=O)c1 (2.5 µM),0,0,0,0,0,0,0,0,0,0
CCn1c(-c2nonc2N)nc2cnc(Oc3cccc(NC(=O)c4ccc(OCCN5CCOCC5)cc4)c3)cc21 (10 µM),4,0,0,0,0,0,3,0,0,0
Cc1cc(Nc2nc(N[C@@H](C)c3ccc(F)cc3)c(C#N)cc2F)n[nH]1 (10 µM),0,0,0,0,4,0,0,0,0,0
Cc1cc(O)c(C(C)C)cc1N=O [Poloxime] (10 µM),0,0,0,0,0,0,0,0,0,0
Cc1cc(NC(=O)c2cccc(NC(=O)/C=C/CN(C)C)c2)ccc1Nc1nccc(-c2cccnc2)n1 (10 µM),0,0,0,0,0,0,0,0,0,0
Cc1ccc2nc(NC(=O)CSc3nc4c(c(=O)n3-c3ccccc3)SCC4)sc2c1 (2 µM),0,0,0,0,0,0,0,0,0,0
C[C@@H](c1ccc2nccn2c1)n1nnc2ncc(-c3cnn(C)c3)nc21 [Savolitinib] (10 µM),0,0,0,0,0,0,0,0,0,0
C=CC(=O)Nc1ccc(CN(C(=O)Nc2c(Cl)c(OC)cc(OC)c2Cl)c2cc(Nc3ccc(N4CCN(C)CC4)cc3)ncn2)cc1 (10 µM),0,0,0,0,0,0,0,0,0,0
CN(C)CCN(Cc1ccc(Cl)cc1)c1ccccn1 [Chloropyramine hydrochloride] (10 µM),0,0,0,0,0,0,0,0,0,0
Cc1ccc(-c2c(C(=O)CCl)n(CCCO)c3ncnc(N)c23)cc1 (10 µM),0,0,0,0,0,0,3,0,0,2
CC(C)(C)c1ccc(S(=O)(=O)Nc2ccc(-n3ccnc3)cc2)cc1 (10 µM),0,0,0,0,0,0,0,0,0,0
CC(C)c1cnc(-c2cc(Cl)ccc2F)cc1Nc1ccncc1C(=O)NC(CO)CO (2.5 µM),0,0,0,0,0,0,0,0,0,0
Cc1noc(C)c1-c1ccc(-c2cc(C(N)=O)c(NC(N)=O)s2)c(O[C@H]2CCNC2)c1 (10 µM),0,0,0,0,0,0,0,0,0,0
CNC(=O)Nc1ccc(-c2cc(-c3ccnc(Nc4ccc(C)c(S(=O)(=O)N(C)C)c4)n3)ccn2)cc1 [hSMG-1 inhibitor 11e] (2.5 µM),1,0,0,0,4,0,0,0,0,0
Cc1ccc(NC(=S)NNc2c([N+](=O)[O-])cc(C(F)(F)F)cc2[N+](=O)[O-])cc1Cl (10 µM),0,0,0,0,0,0,0,0,0,0
NC1(Cc2ccc(Cl)cc2)CCN(c2ncnc3[nH]ccc23)CC1 (10 µM),0,0,0,0,0,0,0,0,0,0
O=C1NC(=O)C(=Cc2ccc(-c3ccc(F)cc3)o2)S1 (stereo in doubt) (10 µM),0,0,0,0,0,0,0,0,0,0
Nc1ncc(-c2cccc(N3CCNCC3)c2)cc1C(=O)Nc1ccncc1 [PKC-iota inhibitor 1] (10 µM),0,0,0,0,0,0,0,0,0,0
C=C(C)C(=O)Nc1cccc(-c2ncnc3[nH]cc(C(=O)OCC)c23)c1 (10 µM),0,0,0,0,0,0,0,0,0,0
C[C@@H]1O[C@@H](O[C@H]2[C@H](Oc3cc(O)c4c(=O)cc(-c5ccc(O)cc5)oc4c3)O[C@H](CO)[C@@H](O)[C@@H]2O)[C@H](O)[C@H](O)[C@H]1O [Rhoifolin] (10 µM),0,0,0,0,0,0,0,0,0,0
COc1c(NC(=O)C(=O)c2ccc(OCCN3CCOCC3)c3ccccc23)cc(C(C)(C)C)cc1NS(C)(=O)=O (2.5 µM),0,0,0,0,0,0,0,0,0,0
COc1cc(N2CCN(C)CC2)ccc1Nc1ncc2c(n1)N(C1CCC1)C(=O)N(c1c(C)cccc1C)C2 (2.5 µM),0,0,0,0,0,0,0,0,0,0
"O=C(O)c1cc(O)ccc1O [2,5-Dihydroxybenzoic acid] (10 µM)",0,0,0,0,0,0,0,0,0,0
CC1CN(C(=O)Nc2ccc(Cl)c(Cl)c2)C(=Nc2ccc(F)cc2)S1 (stereo not given) (10 µM),0,0,0,0,0,0,0,0,0,0
CC(=O)N1CCN(c2cc(-c3cc(C(F)(F)F)c4c(N)ncnn34)ccc2C#N)C(=O)C1(C)C (10 µM),0,0,0,0,0,0,0,0,0,0

# Whole records as entered above. Values in the order: number of time points [1] | number of time points [2] | number of time points [3] | number of time points [4] | number of time points [5] | number of time points [6] | number of time points [7] | number of time points [8] | number of time points [9] | number of time points [10]
# `C[C@@H](c1ccc2nccn2c1)n1nnc2ncc(-c3cnn(C)c3)nc21` [Savolitinib] (10 µM) in the list: 0 | 0 | 0 | 0 | 0 | 0 | 0 | 0 | 0 | 0
# `NC1(Cc2ccc(Cl)cc2)CCN(c2ncnc3[nH]ccc23)CC1` (10 µM) in the list: 0 | 0 | 0 | 0 | 0 | 0 | 0 | 0 | 0 | 0
# `CC(=O)N1CCN(c2cc(-c3cc(C(F)(F)F)c4c(N)ncnn34)ccc2C#N)C(=O)C1(C)C` (10 µM) in the list: 0 | 0 | 0 | 0 | 0 | 0 | 0 | 0 | 0 | 0

# More records

Compound,number of time points [1],number of time points [2],number of time points [3],number of time points [4],number of time points [5],number of time points [6],number of time points [7],number of time points [8],number of time points [9],number of time points [10]
COCCOc1cnc(Sc2cc(C)c(-c3csc(NC(=O)c4ccncc4)n3)c(C)c2)cn1 [T-1101 (tosylate)] (2.5 µM),0,0,0,0,0,0,0,0,0,0
COC1(c2sc3c(N4CCOCC4)nc(-c4cnc(N)nc4)nc3c2C)COC1 (2.5 µM),3,0,1,0,0,0,0,0,0,0
Cc1cc(-c2cc(OC(=O)c3ccccc3)ccc2Cl)cc2nnc(Nc3ccc(OCCN4CCCC4)cc3)nc12 (0.5 µM),0,0,0,0,0,0,0,0,0,0
CCn1c(=O)c(-c2ccc(-c3cncs3)cc2Cl)cc2cnc(Nc3ccc(N4CCN(C)CC4)cc3)nc21 (2.5 µM),0,0,0,0,0,0,0,0,0,0
CC(c1ccc(-c2cnc3c(-c4ccc(S(N)(=O)=O)c5ccccc45)cnn3c2)cc1)N1CCCC1 (stereo not given) (2.5 µM),0,0,0,0,0,0,0,0,0,0
COc1ccc(-c2ccc3c(N4CCOC[C@@H]4C)nc(N4CCOC[C@@H]4C)nc3n2)cc1CO (2.5 µM),4,4,4,3,4,1,3,3,0,3
CCN1CCN(Cc2ccc(Nc3ncc(F)c(-c4cc(F)c5nc(CO)n(C(C)C)c5c4)n3)nc2)CC1 [Abemaciclib metabolite M20] (2 µM),0,0,0,0,0,0,0,0,0,0
COc1cc2ncn(-c3cc(OCc4ccccc4S(C)(=O)=O)c(C#N)s3)c2cc1OC (10 µM),0,0,0,0,0,0,0,0,0,0
COc1ncc(-c2nc(N3CCOCC3)nc3c(CN4CCC(C(C)(C)O)CC4)cc(F)cc23)cc1NS(C)(=O)=O [Linperlisib] (10 µM),0,0,0,0,0,0,0,0,0,0
Cc1ccc(S(=O)(=O)Nc2ccccc2C=Nc2ccccc2NS(=O)(=O)c2ccc(C)cc2)cc1 (10 µM),0,0,0,0,0,0,0,0,0,0
Cn1cc(-c2ccc(CNc3cc(-c4cnc5cc(OCCCN6CCCC6)ccn45)ncn3)cc2)cn1 (10 µM),0,0,0,0,0,0,0,0,0,0
Nc1cc(Nc2ccc(S(N)(=O)=O)cc2)ncn1 (10 µM),0,0,0,0,0,0,0,0,0,0
COC1(C(=O)N2Cc3nc(Cl)nc(N[C@H](C)c4cc(N)cc(C(F)(F)F)c4)c3C2)CCOCC1 (10 µM),0,0,0,0,0,0,0,0,0,0
Cc1c(NC(=O)OC[C@@H]2COCCN2)cn2ncnc(Nc3ccc4c(cnn4Cc4cccc(F)c4)c3)c12 (10 µM),0,0,0,0,0,0,0,0,0,0
CC(C)CN(CC(=O)N1CCN(CC(OCc2ccc3ccccc3c2)c2ccc(Cl)cc2Cl)CC1)CC(C)C (stereo not given) [LYN-1604 (dihydrochloride)] (2.5 µM),0,0,0,0,0,0,0,0,0,0
O=C(NCCCNc1nc(Nc2cccc(NC(=O)N3CCCC3)c2)ncc1I)c1cccs1 (2.5 µM),0,0,2,0,0,0,0,0,0,0
CO[C@H]1C[C@@H]2CC[C@@H](C)[C@@](O)(O2)C(=O)C(=O)N2CCCC[C@H]2C(=O)O[C@H]([C@H](C)C[C@@H]2CC[C@@H](O)[C@H](OC)C2)CC(=O)[C@H](C)/C=C(\C)[C@@H](O)[C@@H](OC)C(=O)[C@H](C)C[C@H](C)/C=C/C=C/C=C/1C [Rapamycin] (10 µM),0,0,0,0,0,0,0,0,0,0
c1cc2c(cc1O[C@H]1OC[C@H]3[C@@H]1CO[C@@H]3c1ccc3c(c1)OCO3)OCO2 [Sesamolin] (10 µM),0,0,0,0,0,0,0,0,0,0
O=C1c2ccc(Nc3ccc(F)cc3F)cc2CCc2ccc(OC[C@H](O)CO)cc21 [Skepinone-L] (2.5 µM),0,0,0,0,0,0,0,0,0,0
C=C1C(=O)O[C@@H]2C[C@@]3(C)CCC[C@H](C)C3=C[C@H]12 [Alantolactone] (10 µM),0,0,4,0,0,0,0,0,0,0
C[C@@H]1C(=O)O[C@H](C)[C@H]1C[C@@H](O)[C@](C)(O)[C@H]1CC[C@@]2(O)C3=CC(=O)[C@@H]4C[C@@H](O)[C@@H](O)C[C@]4(C)[C@H]3CC[C@]12C [Cyasterone] (10 µM),0,0,0,0,0,0,0,0,0,0
CCN(CC)S(=O)(=O)c1ccc(OC)c(N2CCN(C(=O)c3ccc(F)cc3C(F)(F)F)CC2)c1 (10 µM),0,0,0,0,0,0,0,0,0,0
CC(C)(C)NC(=O)c1cncn1C1CCN(c2ccc(-c3nnc(C(F)(F)F)o3)cn2)CC1 (10 µM),0,0,0,0,0,0,0,0,0,0
CC(=NNC(=O)c1ccc(C)c(Br)c1)c1ccc(O)cc1O [mTOR inhibitor-1] (2.5 µM),0,0,0,0,2,0,0,0,0,0
